# Data from PubChem BioAssay AID1487 (National Center for Advancing Translational Sciences (NCATS), 2009).
# The other results are listed elsewhere or left out. These are further read-outs of the screen, such as a control signal, another cell line or another target. No call is given for them. Most of these compounds were active or inconclusive in the main read-out, so they are no random draw. The note in brackets gives the kind of curve behind each potency; many fits are weak.
# Experiment: qHTS Assay for Modulators of Lamin A Splicing
# Conditions: HeLa LMNA splicing GFP/RFP minigene ratio, 48 h
# How it was run: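 S3 HeLa stable clones carrying a lamin A-EGFP splicing minigene plus DsRed2 were seeded at 600 cells/well in Opti-MEM with 2% FBS, pin-dosed and incubated 48 h at 37°C. Acumen cytometry (488 nm) gave the GFP/RFP total-intensity ratio.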
# [1] = measured here: GFP splicing reporter channel
# [2] = measured here: RFP viability control channel
SMILES,AC50 [1],AC50 [2]
Cc1ccc(-n2ncc3c(NCc4cccnc4)ncnc32)c(C)c1,"3.16 µM [rising, full curve, poor fit]","6.31 µM [rising, full curve]"
O=C(NC(=S)NNC(=O)c1cc2ccccc2cc1O)c1ccco1,"4.47 µM [rising, partial curve]","35.5 µM [rising, single point]"
O=C(NCCN1CCOCC1)c1ccc2c(c1)N(Cc1c(F)cccc1Cl)C(=O)c1ccccc1S2,"35.5 µM [falling, single point]",–
Cc1ccc(-c2nnc(SCc3ccccc3)o2)cc1,"0.0355 µM [rising, full curve, poor fit]",–
CC(=O)c1cccc(NC(=O)Nc2cnn(Cc3ccc(F)cc3)c2)c1,–,"35.5 µM [rising, single point]"
Cc1ccc(NC(=O)CSc2nnc(-c3cccs3)o2)cc1S(=O)(=O)N1CCCCC1,–,"12.6 µM [rising, single point]"
COC(=O)/C=C/C(=O)Nc1cccnc1,–,"6.31 µM [falling, single point]"
S=C(Nc1ccccc1)Nc1nc2ccccc2n1CCOc1ccccc1,"35.5 µM [falling, single point]","35.5 µM [falling, single point]"
CCOc1ccccc1NC(=O)Cn1c(=O)nc(-c2ccccc2F)c2cc(Cl)ccc21,–,"0.0631 µM [rising, full curve, poor fit]"
COc1ccc(/C=C2\SC(=O)NC2=S)cc1OC,–,"17.8 µM [rising, partial curve, poor fit]"
CCn1c(/C=N/NC(=O)c2ccc(OC)cc2)nc2ccccc21,"14.1 µM [rising, partial curve, poor fit]","22.4 µM [rising, partial curve]"
c1ccc(CNc2cc(-c3ccoc3)ncn2)cc1,"22.4 µM [falling, partial curve, poor fit]",–
OC(CN1C2=NCCN2c2ccccc21)c1ccccc1 (stereo unspecified),–,"14.1 µM [rising, partial curve, poor fit]"
O=C(Nc1nc(-c2cccs2)cs1)c1cccc(S(=O)(=O)N2CCCCCC2)c1,"35.5 µM [rising, single point]","35.5 µM [rising, single point]"
Cc1cc(C)c(C)c(S(=O)(=O)Nc2ccccc2C(=O)NCCCn2ccnc2)c1C,–,"31.6 µM [rising, single point]"
O=C(CCn1cnc2onc(-c3ccc(F)cc3)c2c1=O)Nc1cccc(C(F)(F)F)c1,"11.2 µM [falling, single point]",–
CNS(=O)(=O)c1ccc(NCC2COc3ccccc3O2)c([N+](=O)[O-])c1 (stereo unspecified),–,"11.2 µM [rising, single point]"
Cc1ccc(S(=O)(=O)N(C)CC(=O)O/N=C(\N)c2ccc([N+](=O)[O-])cc2)cc1,–,"35.5 µM [rising, single point]"
Cc1ccc(CNC(=O)C2CCN(C(=O)N3CC(C)Oc4ccc(Cl)cc43)CC2)cc1 (stereo unspecified),"14.1 µM [rising, partial curve]","31.6 µM [rising, single point]"
Cc1ccc(C)c(N2CCN(CCCNC(=O)c3cnn(-c4cccc(Cl)c4)c3C3CCN(C(=O)OC(C)(C)C)CC3)CC2)c1,"35.5 µM [falling, partial curve]","35.5 µM [falling, partial curve]"
CCn1nc(C(=O)O)c(=O)c2cc3c(cc21)OCO3,"0.0891 µM [falling, full curve, poor fit]","0.00501 µM [rising, full curve, poor fit]"
Cc1nn(-c2ccccc2)c(Cl)c1C(=O)OC(C)C(=O)NC(=O)NC1CCCCC1 (stereo unspecified),–,"35.5 µM [rising, single point]"
O=C(Nc1ccn(Cc2c(F)c(F)cc(F)c2F)n1)c1ccc(COc2ccccc2Cl)cc1,–,"20 µM [rising, single point]"
Cc1ccc(C(=O)NCC(=O)OCC(=O)NCCc2ccccc2)s1,–,"1.78 µM [falling, full curve, poor fit]"
COc1ccc(CCNc2oc(COc3ccccc3)nc2C#N)cc1,"22.4 µM [rising, single point]","31.6 µM [rising, single point]"
Cc1cc2cc(CN3C(=O)c4ccccc4C3=O)ccc2n1C,"11.2 µM [rising, partial curve]",–
COC(=O)c1ccc(CSc2ccc3nnc(-c4ccccc4)n3n2)o1,–,"0.126 µM [rising, partial curve, poor fit]"

# Some of the entries so far, with tabs:
SMILES	AC50 [1]	AC50 [2]
O=C(Nc1ccn(Cc2c(F)c(F)cc(F)c2F)n1)c1ccc(COc2ccccc2Cl)cc1	–	20 µM [rising, single point]
Cc1ccc(C(=O)NCC(=O)OCC(=O)NCCc2ccccc2)s1	–	1.78 µM [falling, full curve, poor fit]

# The list goes on:

SMILES,AC50 [1],AC50 [2]
CCOC(=O)c1cnc2ccc(OCC)cc2c1NCc1cccnc1,–,"14.1 µM [rising, single point]"
COC(=O)Cc1ccc(NC(=S)Nc2ccccn2)cc1,"6.31 µM [falling, single point]","3.98 µM [falling, full curve, poor fit]"
O=C(CSc1nc2[nH]ncc2c(=O)n1-c1ccccc1)c1ccc2c(c1)OCCO2,–,"35.5 µM [rising, single point]"
C=C(C)C1Cc2cc3ccc(=O)oc3cc2O1 (stereo unspecified),–,"0.00708 µM [rising, full curve, poor fit]"
COc1ccc(S(=O)(=O)Nc2cccc(-c3ccc(N4CCCC4)nn3)c2)cc1F,"7.94 µM [falling, partial curve, poor fit]",–
O=C(COC(=O)c1c2c(nc3ccccc13)/C(=C\c1cccs1)CCC2)Nc1ccccc1,"11.2 µM [rising, single point]","20 µM [rising, single point]"
COc1cc(/C=C(/C#N)c2nc3ccccc3[nH]2)ccc1OCC(=O)Nc1ccccc1C(C)C,"20 µM [falling, single point]","1 µM [falling, partial curve]"
O=C(CCn1c(SCC(=O)NCc2ccco2)nc2ccccc2c1=O)NCCc1ccccc1,–,"7.08 µM [rising, partial curve]"
CCc1nc(NCc2ccco2)c2oc3ccccc3c2n1,"8.91 µM [rising, partial curve, poor fit]","11.2 µM [rising, single point]"
O=C(O)C1OC(Oc2c(-c3ccc(O)c(O)c3)oc3cc(O)cc(O)c3c2=O)C(O)C(O)C1O (stereo unspecified),–,"12.6 µM [rising, single point]"
Cc1oc2c(c1C(=O)NCc1ccccc1F)C1=NCCN1C=N2,"0.0251 µM [falling, full curve, poor fit]",–
O=C(NCC(c1ccc2c(c1)OCO2)N1CCN(c2ccccc2)CC1)C(=O)Nc1ccccc1F (stereo unspecified),"0.224 µM [falling, full curve]",–
Cc1cc(C(=O)OCC(=O)NCc2ccco2)c(C)n1-c1ccc(F)cc1,"11.2 µM [rising, partial curve, poor fit]","3.98 µM [rising, full curve]"
CCCc1nc(SCC(=O)N2CCc3ccccc3C2)c2ccccc2n1,"14.1 µM [falling, single point]","35.5 µM [falling, single point]"
O=C(/C=C/c1cccc2ccccc12)c1ccncc1,"35.5 µM [falling, single point]","2.51 µM [rising, partial curve, poor fit]"
CN(C1=C(NC(=O)c2ccccc2)C(=O)c2ccccc2C1=O)C1CCS(=O)(=O)C1 (stereo unspecified),"35.5 µM [falling, partial curve]","35.5 µM [falling, partial curve]"
COc1ccccc1NC(=O)CSc1nnc(-c2ccoc2C)n1CCc1ccccc1,"2.24 µM [rising, full curve, poor fit]","5.01 µM [rising, partial curve]"
Cc1ccc(NC(=O)CSCc2cc(=O)c3ccccc3[nH]2)c(C)c1,"0.282 µM [rising, full curve]",–
CCOc1ccccc1NC(=O)c1cc(S(=O)(=O)N2CCC3(CC2)OCCO3)ccc1F,"28.2 µM [rising, partial curve, poor fit]","35.5 µM [rising, partial curve]"
COc1ccc(Oc2ncc3nc(C)c(=O)n(Cc4cccc(OC)c4)c3n2)cc1,"20 µM [falling, single point]",–
Fc1ccc(-n2cc(CNCCc3ccccn3)c(-c3ccccc3Cl)n2)cc1,"14.1 µM [falling, single point]","35.5 µM [falling, single point]"
O=C(COC(=O)c1n[nH]c2ccccc12)Nc1ccc(Cl)cc1[N+](=O)[O-],"12.6 µM [falling, partial curve]","12.6 µM [falling, partial curve, poor fit]"
Cn1c(=O)c2c(SCc3cccnc3)nc(CC(C)(C)C)nc2n(C)c1=O,"14.1 µM [rising, single point]",–
Cc1onc(-c2c(F)cccc2Cl)c1C(=O)NCc1ccccn1,–,"35.5 µM [rising, single point]"
COc1ccc(C2C(C(=O)/C=C/c3ccco3)=C(O)C(=O)N2CCN2CCOCC2)cc1 (stereo unspecified),"0.0224 µM [rising, full curve, poor fit]",–
CCOc1ccc(C(c2c(O)cc(C)n(Cc3ccco3)c2=O)N2CCN(C)CC2)cc1 (stereo unspecified),"0.794 µM [rising, partial curve, poor fit]",–
Cc1ccc(-c2csc3nc(CSc4nnc(-c5ccc(Cl)cc5)n4C)[nH]c(=O)c23)cc1,"14.1 µM [rising, single point]","35.5 µM [rising, single point]"

# A different layout for some results above.
SMILES	AC50 [1]	AC50 [2]
COc1ccc(/C=C2\SC(=O)NC2=S)cc1OC	–	17.8 µM [rising, partial curve, poor fit]
CCn1c(/C=N/NC(=O)c2ccc(OC)cc2)nc2ccccc21	14.1 µM [rising, partial curve, poor fit]	22.4 µM [rising, partial curve]
